Patent publication US20140155332A1
Where two headings read alike, the source gives them in different places. No constants are given. Whether binding was seen depends on the method and setting. For some assays here: Binding seen in cells or lysates may run through a third protein. Some entries that bind do so weakly or less than the wild type.

What was measured:
[1] = biological target: Mcl-1 (human), Q07820; settings: remark: other sources report otherwise
[2] = biological target: Mcl-1 (human), Q07820; assay: immunoprecipitation with antibodies against Mcl-1, Bcl-XL or rabbit IgG from BPLER or HMLER lysates, immunoblot (FIG. 5F); settings: remark: other sources report otherwise

B1: Noxa, Q13794 1-54 (protein, human, UniProt Q13794 1-54, looked up)
chain: MPGKKARKNAQPSPARAPAELEVECATQLRRFGDKLNFRQKLLNLISKLFCSGT
binding [1]: binds
binding [2]: binds
